Results taken from article PMC5751184.
No constants are given. Whether binding was seen depends on the method and setting. Binding seen in cells or lysates may run through a third protein. Some binding calls cover weakened binding; strength is not graded here.

Protein sequences, listed by entry. Tags and fused reporters are not part of them. Lines headed by an entry give the natural chain unless they say otherwise; changes in a name come on top. Chains listed by the source or under a name are the forms on record and can include a tag or linker. Residues count along the entry.
CARMA2sh, endogenous in HaCaT cells (human (endogenous in HaCaT)) (Q9BXL6, residues 1-740): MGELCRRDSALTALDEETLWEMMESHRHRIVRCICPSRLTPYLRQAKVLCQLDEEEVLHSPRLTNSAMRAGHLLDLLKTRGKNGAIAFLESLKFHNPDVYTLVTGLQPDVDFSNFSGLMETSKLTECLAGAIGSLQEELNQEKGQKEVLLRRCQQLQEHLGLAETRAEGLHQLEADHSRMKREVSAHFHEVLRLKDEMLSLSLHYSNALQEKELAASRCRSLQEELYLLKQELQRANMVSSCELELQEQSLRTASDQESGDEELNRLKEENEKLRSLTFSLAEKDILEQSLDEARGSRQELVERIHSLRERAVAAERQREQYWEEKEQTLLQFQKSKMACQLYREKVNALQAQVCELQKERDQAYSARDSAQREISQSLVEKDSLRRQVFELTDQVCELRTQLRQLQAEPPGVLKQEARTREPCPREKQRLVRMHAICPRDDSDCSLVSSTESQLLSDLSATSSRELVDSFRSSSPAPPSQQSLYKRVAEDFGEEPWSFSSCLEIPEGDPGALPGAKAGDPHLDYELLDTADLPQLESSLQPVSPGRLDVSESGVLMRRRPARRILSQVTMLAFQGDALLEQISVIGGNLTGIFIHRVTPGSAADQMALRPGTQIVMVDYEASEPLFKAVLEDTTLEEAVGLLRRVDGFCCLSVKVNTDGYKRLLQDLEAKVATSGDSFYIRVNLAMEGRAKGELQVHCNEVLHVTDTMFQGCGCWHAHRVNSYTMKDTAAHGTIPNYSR
FLAG-tagged CARMA2shE138A (psoriasis-linked mutant) (Q9BXL6, form named): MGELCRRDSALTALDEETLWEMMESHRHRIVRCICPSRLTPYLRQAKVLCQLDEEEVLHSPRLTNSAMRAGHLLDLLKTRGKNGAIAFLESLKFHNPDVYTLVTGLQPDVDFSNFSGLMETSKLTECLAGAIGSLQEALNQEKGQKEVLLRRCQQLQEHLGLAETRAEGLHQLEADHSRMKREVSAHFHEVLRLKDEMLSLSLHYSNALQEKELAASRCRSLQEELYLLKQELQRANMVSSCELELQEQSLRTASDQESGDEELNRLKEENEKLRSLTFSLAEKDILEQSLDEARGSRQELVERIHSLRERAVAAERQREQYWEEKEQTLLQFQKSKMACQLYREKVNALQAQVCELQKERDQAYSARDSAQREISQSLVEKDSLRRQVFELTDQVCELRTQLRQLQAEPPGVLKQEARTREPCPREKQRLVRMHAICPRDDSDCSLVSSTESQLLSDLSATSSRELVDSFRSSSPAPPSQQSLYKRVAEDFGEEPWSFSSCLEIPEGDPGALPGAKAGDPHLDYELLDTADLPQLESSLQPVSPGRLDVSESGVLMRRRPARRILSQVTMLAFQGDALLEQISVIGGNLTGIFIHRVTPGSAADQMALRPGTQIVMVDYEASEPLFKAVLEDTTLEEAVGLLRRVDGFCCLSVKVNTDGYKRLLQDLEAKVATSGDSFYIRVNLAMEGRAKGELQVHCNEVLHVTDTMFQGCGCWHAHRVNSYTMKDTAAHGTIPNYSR
FLAG-tagged CARMA2shE142G (psoriasis-linked mutant) (Q9BXL6, form named): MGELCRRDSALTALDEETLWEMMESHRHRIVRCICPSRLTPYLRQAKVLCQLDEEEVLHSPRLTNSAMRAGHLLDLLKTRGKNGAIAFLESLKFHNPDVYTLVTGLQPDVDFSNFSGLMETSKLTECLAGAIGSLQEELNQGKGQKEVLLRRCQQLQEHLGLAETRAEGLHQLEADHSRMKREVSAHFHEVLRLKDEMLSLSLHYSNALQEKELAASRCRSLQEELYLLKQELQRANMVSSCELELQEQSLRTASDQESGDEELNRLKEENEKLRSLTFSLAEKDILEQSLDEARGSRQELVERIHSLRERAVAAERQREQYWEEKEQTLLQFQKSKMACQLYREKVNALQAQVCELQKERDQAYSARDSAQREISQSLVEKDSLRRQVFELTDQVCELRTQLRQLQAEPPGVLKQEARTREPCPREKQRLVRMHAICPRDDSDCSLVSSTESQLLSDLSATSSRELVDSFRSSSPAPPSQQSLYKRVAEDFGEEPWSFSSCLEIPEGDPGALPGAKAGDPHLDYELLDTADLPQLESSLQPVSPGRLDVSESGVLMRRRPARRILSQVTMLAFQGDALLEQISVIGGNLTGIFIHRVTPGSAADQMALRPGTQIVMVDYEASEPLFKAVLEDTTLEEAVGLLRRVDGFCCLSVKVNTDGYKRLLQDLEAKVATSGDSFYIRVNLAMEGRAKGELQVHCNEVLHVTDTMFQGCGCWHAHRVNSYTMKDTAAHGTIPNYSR
UniProt Q9UBF6: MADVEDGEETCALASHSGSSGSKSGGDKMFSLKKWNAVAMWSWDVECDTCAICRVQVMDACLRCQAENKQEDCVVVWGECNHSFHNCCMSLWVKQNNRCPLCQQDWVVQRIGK

Columns and labels:
[1] = target: FLAG-tagged CARMA2shE138A (psoriasis-linked mutant) (human) (UniProt Q9BXL6); assay: co-IP; HEK293T cotransfected with FLAG-tagged CARMA2sh (wt or mutant) and HA-tagged RNF7; lysates after 24 h immunoprecipitated with anti-FLAG, blot with anti-HA; lysis buffer 150 mM NaCl, 20 mM HEPES pH 7.4, 1% Triton X-100, 10% glycerol
[2] = target: FLAG-tagged CARMA2shE142G (psoriasis-linked mutant) (human) (UniProt Q9BXL6); assay: as above
[3] = target: FLAG-tagged CARMA2sh (human) (UniProt Q9BXL6); assay: as above
[4] = target: CARMA2sh, endogenous in HaCaT cells (human (endogenous in HaCaT)) (UniProt Q9BXL6); assay: co-IP; endogenous proteins in HaCaT lysates, cells untreated or stimulated with IL-1β for 30 min; anti-myc as control antibody; immunoblot

Substance | binding [1] | binding [2] | binding [3] | binding [4]
HA-tagged RNF7 (from UniProt Q9UBF6 1-113) | binds | binds | binds | –
RNF7, endogenous in HaCaT cells (from UniProt Q9UBF6 1-113) | – | – | – | binds
